Data reported in patent US10265275B2, “Phenolic coatings and methods of making and using same” (Northwestern University, priority 2013, dated 2019).

Legend:
[1] = Coating ability on TiO2 at pH 3-9, XPS Ti2p signal attenuation; conditions: for capable of forming coatings between pH 3 and 9: TiO2, XPS, at least 20% signal reduction; for Ti2p Signal Strength (%): 24 h, 600 mM NaCl
[2] = Coating thickness on TiO2 by ellipsometry; conditions: TiO2, 48 h, pH 8
[3] = Coating ability on a wide range of substrate materials (XPS, ellipsometry, silver deposition); conditions: 600 mM NaCl
[4] = Effect of salt on coating formation on TiO2, XPS Ti2p signal; conditions: for able to coat both TiO2 and SiO2 with at least one of the experimental conditions: TiO2 and SiO2, salts of Tables 8-9; for Ti2p Signal Strength (%): 48 h
[5] = Effect of salt on coating formation on SiO2, XPS Si2p signal; conditions: 48 h
[6] = pH 8, Ca2+ = 600 mM CaCl2, 1 mg/mL
[7] = pH 8, Cu2+ = 100 μM CuCl2 + 600 mM NaCl, 1 mg/mL
[8] = pH 8, Mg2+ = 600 mM MgCl2, 1 mg/mL
[9] = pH 8, Na+ = 600 mM NaCl, 1 mg/mL
[10] = pH 8, Zn2+ = 100 μM ZnCl2 + 600 mM NaCl, 1 mg/mL
[11] = pH 9, Ca2+ = 600 mM CaCl2, 1 mg/mL
[12] = pH 9, Cu2+ = 100 μM CuCl2 + 600 mM NaCl, 1 mg/mL
[13] = pH 9, Mg2+ = 600 mM MgCl2, 1 mg/mL
[14] = pH 9, Na+ = 600 mM NaCl, 1 mg/mL
[15] = pH 9, Zn2+ = 100 μM ZnCl2 + 600 mM NaCl, 1 mg/mL
[16] = pH 7, Ca2+ = 600 mM CaCl2, 1 mg/mL
[17] = pH 7, Cu2+ = 100 μM CuCl2 + 600 mM NaCl, 1 mg/mL
[18] = pH 7, Mg2+ = 600 mM MgCl2, 1 mg/mL
[19] = pH 7, Na+ = 600 mM NaCl, 1 mg/mL
[20] = pH 7, Zn2+ = 100 μM ZnCl2 + 600 mM NaCl, 1 mg/mL

SMILES | capable of forming coatings between pH 3 and 9 [1] | Ti2p Signal Strength (%) ([1]; pH 7, precursor 1 mg/mL) | Ti2p Signal Strength (%) ([1]; pH 8, precursor 1 mg/mL) | Ti2p Signal Strength (%) ([1]; pH 9, precursor 1 mg/mL) | able to coat both TiO2 and SiO2 with at least one of the experimental conditions [4] | Ti2p Signal Strength (%) [4, 6] | Ti2p Signal Strength (%) [4, 7] | Ti2p Signal Strength (%) [4, 8] | Ti2p Signal Strength (%) [4, 9] | Ti2p Signal Strength (%) [4, 10] | Si2p Signal Strength (%) [5, 6] | Si2p Signal Strength (%) [5, 7] | Si2p Signal Strength (%) [5, 8] | Si2p Signal Strength (%) [5, 9] | Si2p Signal Strength (%) [5, 10] | Ti2p Signal Strength (%) [4, 11] | Ti2p Signal Strength (%) [4, 12] | Ti2p Signal Strength (%) [4, 13] | Ti2p Signal Strength (%) [4, 14] | Ti2p Signal Strength (%) [4, 15] | also measured
Oc1ccccc1O [Catechol, catechol] | capable of forming coatings | 51.7% | 8.5% | 81.1% | able to coat both TiO2 and SiO2 | 0.0% | 89.8% | 0.0% | 9.7% | 93.5% | 0.0% | 72.4% | 0.0% | 108.7% | 76.9% | – | – | – | – | – | Optimal Coating pH ([1]; pH with the greatest signal attenuation in the XPS trials): 8.0; Coating Thickness (nm) [2]: 5.0 ± 0.1 nm; Coating Formed? SiO2 ([3]; substrate SiO2 (silica), each precursor at its own pH): No; Coating Formed? TiO2 ([3]; substrate TiO2, each precursor at its own pH (TA 7, PG 7, catechol 8, catechin 9, HHQ 6, EGCG 7)): Yes; Coating Formed? Au ([3]; substrate gold, each precursor at its own pH): Yes; Coating Formed? Nylon ([3]; substrate nylon 6-12, each precursor at its own pH): Yes; Coating Formed? PEEK ([3]; substrate poly(ether ether ketone), each precursor at its own pH): Yes; Coating Formed? PPS ([3]; substrate poly(p-phenylene sulfide), each precursor at its own pH): Yes; Coating Formed? PC ([3]; substrate polycarbonate, each precursor at its own pH): Yes; Coating Formed? PS ([3]; substrate polystyrene, each precursor at its own pH): Yes; Coating Formed? PTFE ([3]; substrate polytetrafluoroethylene, each precursor at its own pH): Yes; Coating Formed? SS ([3]; substrate stainless steel, each precursor at its own pH): Yes
O=c1c(O)c(-c2ccc(O)c(O)c2)oc2cc(O)cc(O)c12 [Quercetin, quercetin] | capable of forming coatings | – | – | 73.3% | able to coat both TiO2 and SiO2 | – | – | – | – | – | – | – | – | – | – | 0.0% | 94.4% | 54.6% | 83.9% | 77.6% | Si2p Signal Strength (%) [5, 11]: 0.0%; Si2p Signal Strength (%) [5, 12]: 88.5%; Si2p Signal Strength (%) [5, 13]: 7.8%; Si2p Signal Strength (%) [5, 14]: 90.2%; Si2p Signal Strength (%) [5, 15]: 95.1%
Oc1cccc(O)c1 [Resorcinol, resorcinol] | capable of forming coatings | 94.7% | 85.0% | 90.9% | able to coat both TiO2 and SiO2 | 111.6% | 84.1% | 0.0% | 97.3% | 104.7% | 88.7% | 76.9% | 71.6% | 89.9% | 90.6% | – | – | – | – | – | –
O=C1C[C@@H](c2ccc(O)cc2)Oc2cc(O)cc(O)c21 [Naringenin, naringenin] | capable of forming coatings | – | 80.2% | 90.1% | – | – | – | – | – | – | – | – | – | – | – | – | – | – | – | – | –
C[C@@H]1O[C@@H](O[C@H]2[C@H](Oc3cc(O)c4c(c3)O[C@H](c3ccc(O)cc3)CC4=O)O[C@H](CO)[C@@H](O)[C@@H]2O)[C@H](O)[C@H](O)[C@H]1O [Naringin, naringin] | capable of forming coatings | 90.9% | 79.0% | 80.0% | – | – | – | – | – | – | – | – | – | – | – | – | – | – | – | – | –
O=C(O)c1cc(O)c(O)c(O)c1 [Gallic acid, gallic acid] | – | 94.0% | 95.0% | 88.3% | able to coat both TiO2 and SiO2 | – | – | – | – | – | – | – | – | – | – | – | – | – | – | – | Ti2p Signal Strength (%) [4, 16]: 0.0%; Ti2p Signal Strength (%) [4, 17]: 106.3%; Ti2p Signal Strength (%) [4, 18]: 0.0%; Ti2p Signal Strength (%) [4, 19]: 107.6%; Ti2p Signal Strength (%) [4, 20]: 80.7%; Si2p Signal Strength (%) [5, 16]: 7.7%; Si2p Signal Strength (%) [5, 17]: 91.0%; Si2p Signal Strength (%) [5, 18]: 0.0%; Si2p Signal Strength (%) [5, 19]: 95.3%; Si2p Signal Strength (%) [5, 20]: 107.5%
Oc1cc(O)cc(O)c1 [Phloroglucinol, phloroglucinol] | capable of forming coatings | 98.0% | 82.8% | 77.4% | able to coat both TiO2 and SiO2 | 106.8% | 94.7% | 84.7% | 94.8% | 91.9% | 91.7% | 83.9% | 69.4% | 85.3% | 88.7% | 81.7% | 94.4% | 51.6% | 88.6% | 111.9% | Si2p Signal Strength (%) [5, 11]: 84.6%; Si2p Signal Strength (%) [5, 12]: 78.9%; Si2p Signal Strength (%) [5, 13]: 76.5%; Si2p Signal Strength (%) [5, 14]: 30.5%; Si2p Signal Strength (%) [5, 15]: 90.4%
O=c1c(O)c(-c2ccc(O)cc2O)oc2cc(O)cc(O)c12 [Morin, morin] | capable of forming coatings | – | 45.9% | 54.7% | – | – | – | – | – | – | – | – | – | – | – | – | – | – | – | – | Coating Thickness (nm) [2]: 1.9 ± 0.2 nm
Oc1ccc(O)cc1 [Hydroquinone, hydroquinone] | capable of forming coatings | 89.3% | 89.6% | 70.6% | able to coat both TiO2 and SiO2 | – | – | – | – | – | – | – | – | – | – | 0.0% | 93.5% | 62.5% | 80.8% | 108.7% | Si2p Signal Strength (%) [5, 11]: 86.5%; Si2p Signal Strength (%) [5, 12]: 68.2%; Si2p Signal Strength (%) [5, 13]: 77.1%; Si2p Signal Strength (%) [5, 14]: 85.9%; Si2p Signal Strength (%) [5, 15]: 89.0%
Oc1ccccc1 [Phenol, phenol] | capable of forming coatings | 102.2% | 68.5% | 79.0% | able to coat both TiO2 and SiO2 | 106.8% | 78.7% | 0.0% | 78.5% | 86.4% | 70.8% | 71.9% | 0.0% | 93.0% | 85.6% | – | – | – | – | – | –

Some entries repeat one wording, which the source may state once for all of them.
